Test results: US20090252732A1
These are yes or no findings as the source states them, for the method shown. Some binding calls cover weakened binding; strength is not graded here.

Chains of the proteins cited; added tags and fusions are not shown. Lines headed by an entry give the natural chain unless they say otherwise; changes in a name come on top.
UniProt Q6EBC2: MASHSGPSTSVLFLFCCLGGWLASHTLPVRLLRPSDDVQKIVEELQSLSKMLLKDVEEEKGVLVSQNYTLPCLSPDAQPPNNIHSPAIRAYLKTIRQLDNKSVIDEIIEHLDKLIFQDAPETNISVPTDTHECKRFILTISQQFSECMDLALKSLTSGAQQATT

Target: IL-31-CEE: purified, recombinant human IL-31 fused at the C-terminal with a peptide consisting of the sequence EYMPME, produced in BHK cells (human) (UniProt Q6EBC2)
Assay: Western blot on denatured rIL31 (reduced and non-reduced)

B1: mouse anti-human IL-31 mAb from clone 294.144.3.5 (ATCC Patent Deposit Designation PTA-6873) (antibody, mouse IgG1, V domains shown)
VH: QVQLQQSGPELMKPGASVKISCKATGYTFSTYWIEWIKQRPGHGLEWIGEILPGRGTTNYNAKFQGKATFTAETSSNTAYMQLSSLTSEDSAVYYCTTESKLGDDDYWQGTTLTVSS
VL: ENVLTQSPAIMSASPGERVTMTCSASSSVSYMHWYQQKSSNSPKLWIYDTTKLASGVPGRFSGSGSGNSYSLTISSMEAEDVATYFCFQGSEHPLTFGGGTTLEI
binding: binds
